# In the supplement of paper PMC8728848:
# This is one part of the list.
# B1: GS7807F-bth-514-18-514 (Bacteroides thetaiotaomicron) (protein)
# chain: AGSCTGNFEEYNTNQFQIHEADPSTLMKSMIETIVNIQQNDSQMMDQMVGQLGGYLTCANVWSGTNFGTFNQSDAWNAGPWNTNFEKIYGNFFQIQEATNESGHYYAFARMIRAITMLRVADCYGPMPYSQVKKGNFYVAYDTEEQVYKNIMEDFASAANVLYNYYKDTNGNAPLASNDPVFSGNYANWARLANSMRLRVAIRISTAYPEMAKENAEAAASHEAGLIEANNDNAMMDCGSQTNPYQLAAVSWGDLRVNANIVDYMNGYGDPRMSKYFNHSTFTGHTQEYVGMRSGEDGFAKSDVAGYSIPAITGTSKLLVFCAAETAFLRAEGKLKNWSVGNKSAKEYYEEGIKLSMEQYGTTMPDNYLTNTEKPTVSHNNDPRGHAYTISNTVAVAWNDNNEEENLQRIITQKWIANYPLGLEAWAEYRRTGYPELYPCIDNLSPSGVDSKRGMRRLRFPYTEVQNNHSNYQQGVSYLKNGGPDNEATDLSWGKTN
# Tests used:
# Test in all cases: glycan array binding signal (z-score within array); higher = stronger binding
# Settings in all cases: glycan notation: IUPAC condensed, linker removed
# [1] = molecular target: Gal(b1-3)GlcNAc(b1-6)[Gal(b1-3)]GalNAc
# Procedure, shortened: (§1)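 Columns mapping to the same glycan were averaged after glycan names were converted to IUPAC-condensed notation. The data come from 3228 arrays in the Consortium for Functional Glycomics database, limited to those with an available protein sequence. Binding is reported as a within-array Z-score averaged across arrays of one protein sequence and across linkers.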
# [2] = molecular target: Gal(b1-3)GlcNAc6S
# Procedure, shortened: as §1
# [3] = molecular target: Gal(b1-3)[Fuc(a1-4)]GlcNAc
# Procedure, shortened: as §1
# [4] = molecular target: Gal(b1-3)[Fuc(a1-4)]GlcNAc(b1-2)Man
# Procedure, shortened: as §1
# [5] = molecular target: Gal(b1-3)[Fuc(a1-4)]GlcNAc(b1-2)Man(a1-3)[Gal(b1-3)[Fuc(a1-4)]GlcNAc(b1-2)Man(a1-6)]Man(b1-4)GlcNAc(b1-4)[Fuc(a1-6)]GlcNAc
# Procedure, shortened: as §1
# [6] = molecular target: Gal(b1-3)[Fuc(a1-4)]GlcNAc(b1-3)Gal(b1-3)[Fuc(a1-4)]GlcNAc
# Procedure, shortened: as §1
# [7] = molecular target: Gal(b1-3)[Fuc(a1-4)]GlcNAc(b1-3)Gal(b1-4)[Fuc(a1-3)]GlcNAc
# Procedure, shortened: as §1
# [8] = molecular target: Gal(b1-3)[Fuc(a1-4)]GlcNAc(b1-6)GalNAc
# Procedure, shortened: as §1
# [9] = molecular target: Gal(b1-3)[GlcNAc(b1-6)]GalNAc
# Procedure, shortened: as §1
# [10] = molecular target: Gal(b1-3)[Neu5Ac(a2-6)]GalNAc
# Procedure, shortened: as §1
# [11] = molecular target: Gal(b1-3)[Neu5Ac(a2-6)]GlcNAc(b1-4)Gal(b1-4)Glc
# Procedure, shortened: as §1
# [12] = molecular target: Gal(b1-3)[Neu5Ac(b2-6)]GalNAc
# Procedure, shortened: as §1
# [13] = molecular target: Gal(b1-4)Gal
# Procedure, shortened: as §1
# [14] = molecular target: Gal(b1-4)GalNAc(a1-3)[Fuc(a1-2)]Gal(b1-4)GlcNAc
# Procedure, shortened: as §1
# [15] = molecular target: Gal(b1-4)GalNAc(b1-3)[Fuc(a1-2)]Gal(b1-4)GlcNAc
# Procedure, shortened: as §1
# [16] = molecular target: Gal(b1-4)Glc
# Procedure, shortened: as §1
# [17] = molecular target: Gal(b1-4)Glc6S
# Procedure, shortened: as §1
# [18] = molecular target: Gal(b1-4)GlcNAc
# Procedure, shortened: as §1
# [19] = molecular target: Gal(b1-4)GlcNAc(a1-6)Gal(b1-4)GlcNAc
# Procedure, shortened: as §1
# [20] = molecular target: Gal(b1-4)GlcNAc(b1-2)Man
# Procedure, shortened: as §1
# [21] = molecular target: Gal(b1-4)GlcNAc(b1-2)Man(a1-3)Man(b1-4)GlcNAc(b1-4)GlcNAc
# Procedure, shortened: as §1
# [22] = molecular target: Gal(b1-4)GlcNAc(b1-2)Man(a1-3)[Gal(b1-4)GlcNAc(b1-2)Man(a1-6)]Man(b1-4)GlcNAc(b1-4)GlcNAc
# Procedure, shortened: as §1
# [23] = molecular target: Gal(b1-4)GlcNAc(b1-2)Man(a1-3)[Gal(b1-4)GlcNAc(b1-2)Man(a1-6)]Man(b1-4)GlcNAc(b1-4)[Fuc(a1-6)]GlcNAc
# Procedure, shortened: as §1
# [24] = molecular target: Gal(b1-4)GlcNAc(b1-2)Man(a1-3)[Gal(b1-4)GlcNAc(b1-2)Man(a1-6)][Gal(b1-4)GlcNAc(b1-4)]Man(b1-4)GlcNAc(b1-4)[Fuc(a1-6)]GlcNAc
# Procedure, shortened: as §1
# [25] = molecular target: Gal(b1-4)GlcNAc(b1-2)Man(a1-3)[Gal(b1-4)GlcNAc(b1-2)Man(a1-6)][GlcNAc(b1-4)]Man(b1-4)GlcNAc(b1-4)[Fuc(a1-6)]GlcNAc
# Procedure, shortened: as §1
# [26] = molecular target: Gal(b1-4)GlcNAc(b1-2)Man(a1-3)[GlcNAc(b1-2)Man(a1-6)]Man(b1-4)GlcNAc(b1-4)GlcNAc
# Procedure, shortened: as §1
# [27] = molecular target: Gal(b1-4)GlcNAc(b1-2)Man(a1-3)[GlcNAc(b1-4)][Gal(b1-4)GlcNAc(b1-2)Man(a1-6)]Man(b1-4)GlcNAc(b1-4)GlcNAc
# Procedure, shortened: as §1
# [28] = molecular target: Gal(b1-4)GlcNAc(b1-2)Man(a1-3)[Man(a1-6)]Man(b1-4)GlcNAc(b1-4)GlcNAc
# Procedure, shortened: as §1
# [29] = molecular target: Gal(b1-4)GlcNAc(b1-2)Man(a1-6)Man(b1-4)GlcNAc(b1-4)GlcNAc
# Procedure, shortened: as §1
# [30] = molecular target: Gal(b1-4)GlcNAc(b1-2)Man(a1-6)[GlcNAc(b1-2)Man(a1-3)]Man(b1-4)GlcNAc(b1-4)GlcNAc
# Procedure, shortened: as §1
# [31] = molecular target: Gal(b1-4)GlcNAc(b1-2)Man(a1-6)[Man(a1-3)]Man(b1-4)GlcNAc(b1-4)GlcNAc
# Procedure, shortened: as §1
# [32] = molecular target: Gal(b1-4)GlcNAc(b1-2)[Gal(b1-4)GlcNAc(b1-4)]Man(a1-3)[Gal(b1-4)GlcNAc(b1-2)Man(a1-6)]Man(b1-4)GlcNAc(b1-4)GlcNAc
# Procedure, shortened: as §1
# [33] = molecular target: Gal(b1-4)GlcNAc(b1-2)[Gal(b1-4)GlcNAc(b1-4)]Man(a1-3)[Gal(b1-4)GlcNAc(b1-2)[Gal(b1-4)GlcNAc(b1-6)]Man(a1-6)]Man(b1-4)GlcNAc(b1-4)GlcNAc
# Procedure, shortened: as §1
# [34] = molecular target: Gal(b1-4)GlcNAc(b1-2)[Gal(b1-4)GlcNAc(b1-4)]Man(a1-3)[GlcNAc(b1-4)][Gal(b1-4)GlcNAc(b1-2)Man(a1-6)]Man(b1-4)GlcNAc(b1-4)GlcNAc
# Procedure, shortened: as §1
# [35] = molecular target: Gal(b1-4)GlcNAc(b1-2)[Gal(b1-4)GlcNAc(b1-4)]Man(a1-3)[GlcNAc(b1-4)][Gal(b1-4)GlcNAc(b1-2)[Gal(b1-4)GlcNAc(b1-6)]Man(a1-6)]Man(b1-4)GlcNAc(b1-4)GlcNAc
# Procedure, shortened: as §1
# [36] = molecular target: Gal(b1-4)GlcNAc(b1-2)[Gal(b1-4)GlcNAc(b1-6)]Man(a1-6)[Gal(b1-4)GlcNAc(b1-2)Man(a1-3)]Man(b1-4)GlcNAc(b1-4)GlcNAc
# Procedure, shortened: as §1
# [37] = molecular target: Gal(b1-4)GlcNAc(b1-2)[Gal(b1-4)GlcNAc(b1-6)]Man(a1-6)[Gal(b1-4)GlcNAc(b1-2)Man(a1-3)]Man(b1-4)GlcNAc(b1-4)[Fuc(a1-6)]GlcNAc
# Procedure, shortened: as §1
# [38] = molecular target: Gal(b1-4)GlcNAc(b1-2)[Gal(b1-4)GlcNAc(b1-6)]Man(a1-6)[GlcNAc(b1-4)][Gal(b1-4)GlcNAc(b1-2)Man(a1-3)]Man(b1-4)GlcNAc(b1-4)GlcNAc
# Procedure, shortened: as §1
# [39] = molecular target: Gal(b1-4)GlcNAc(b1-2)[Gal(b1-4)GlcNAc(b1-6)]Man(a1-6)[GlcNAc(b1-4)][Gal(b1-4)GlcNAc(b1-2)[Gal(b1-4)GlcNAc(b1-4)]Man(a1-3)]Man(b1-4)GlcNAc(b1-4)[Fuc(a1-6)]GlcNAc
# Procedure, shortened: as §1
# [40] = molecular target: Gal(b1-4)GlcNAc(b1-3)Gal(b1-3)GalNAc
# Procedure, shortened: as §1
# [41] = molecular target: Gal(b1-4)GlcNAc(b1-3)Gal(b1-3)GlcNAc
# Procedure, shortened: as §1
# [42] = molecular target: Gal(b1-4)GlcNAc(b1-3)Gal(b1-4)Glc
# Procedure, shortened: as §1
# [43] = molecular target: Gal(b1-4)GlcNAc(b1-3)Gal(b1-4)GlcNAc
# Procedure, shortened: as §1
# [44] = molecular target: Gal(b1-4)GlcNAc(b1-3)Gal(b1-4)GlcNAc(b1-2)Man(a1-3)[Gal(b1-4)GlcNAc(b1-3)Gal(b1-4)GlcNAc(b1-2)Man(a1-6)]Man(b1-4)GlcNAc(b1-4)GlcNAc
# Procedure, shortened: as §1
# [45] = molecular target: Gal(b1-4)GlcNAc(b1-3)Gal(b1-4)GlcNAc(b1-2)Man(a1-3)[Gal(b1-4)GlcNAc(b1-3)Gal(b1-4)GlcNAc(b1-2)Man(a1-6)]Man(b1-4)GlcNAc(b1-4)[Fuc(a1-6)]GlcNAc
# Procedure, shortened: as §1
binder,measurement,setting,value
B1,glycan array binding signal (z-score),[1],1.38
same,glycan array binding signal (z-score),[2],2.12
same,glycan array binding signal (z-score),[3],-0.644
same,glycan array binding signal (z-score),[4],-0.122
same,glycan array binding signal (z-score),[5],1
same,glycan array binding signal (z-score),[6],-0.44
same,glycan array binding signal (z-score),[7],-0.842
same,glycan array binding signal (z-score),[8],1.82
same,glycan array binding signal (z-score),[9],-0.455
same,glycan array binding signal (z-score),[10],-0.323
same,glycan array binding signal (z-score),[11],0.228
same,glycan array binding signal (z-score),[12],-0.871
same,glycan array binding signal (z-score),[13],0.687
same,glycan array binding signal (z-score),[14],-0.13
same,glycan array binding signal (z-score),[15],-0.798
same,glycan array binding signal (z-score),[16],-0.577
same,glycan array binding signal (z-score),[17],2.34
same,glycan array binding signal (z-score),[18],-0.131
same,glycan array binding signal (z-score),[19],-0.505
same,glycan array binding signal (z-score),[20],0.558
same,glycan array binding signal (z-score),[21],0.202
same,glycan array binding signal (z-score),[22],-0.342
same,glycan array binding signal (z-score),[23],0.975
same,glycan array binding signal (z-score),[24],0.619
same,glycan array binding signal (z-score),[25],0.192
same,glycan array binding signal (z-score),[26],-0.7
same,glycan array binding signal (z-score),[27],-0.47
same,glycan array binding signal (z-score),[28],0.371
same,glycan array binding signal (z-score),[29],0.698
same,glycan array binding signal (z-score),[30],0.284
same,glycan array binding signal (z-score),[31],1.74
same,glycan array binding signal (z-score),[32],0.432
same,glycan array binding signal (z-score),[33],-0.476
same,glycan array binding signal (z-score),[34],0.403
same,glycan array binding signal (z-score),[35],0.292
same,glycan array binding signal (z-score),[36],-0.364
same,glycan array binding signal (z-score),[37],-0.133
same,glycan array binding signal (z-score),[38],0.819
same,glycan array binding signal (z-score),[39],-0.182
same,glycan array binding signal (z-score),[40],-0.595
same,glycan array binding signal (z-score),[41],-0.209
same,glycan array binding signal (z-score),[42],0.607
same,glycan array binding signal (z-score),[43],0.003
same,glycan array binding signal (z-score),[44],-0.281
same,glycan array binding signal (z-score),[45],0.635

# Another view of part of the listing above.
binder | measurement | setting | value
B1 | glycan array binding signal (z-score) | [13] | 0.687
same | glycan array binding signal (z-score) | [14] | -0.13
same | glycan array binding signal (z-score) | [15] | -0.798
same | glycan array binding signal (z-score) | [16] | -0.577
same | glycan array binding signal (z-score) | [17] | 2.34
same | glycan array binding signal (z-score) | [18] | -0.131
same | glycan array binding signal (z-score) | [19] | -0.505
same | glycan array binding signal (z-score) | [20] | 0.558
same | glycan array binding signal (z-score) | [21] | 0.202
same | glycan array binding signal (z-score) | [22] | -0.342
same | glycan array binding signal (z-score) | [23] | 0.975
